{"sequences": {"note": "By UniProt entry, the sequences of proteins in these tests, tags left out.", "UniProt Q9ULZ3": "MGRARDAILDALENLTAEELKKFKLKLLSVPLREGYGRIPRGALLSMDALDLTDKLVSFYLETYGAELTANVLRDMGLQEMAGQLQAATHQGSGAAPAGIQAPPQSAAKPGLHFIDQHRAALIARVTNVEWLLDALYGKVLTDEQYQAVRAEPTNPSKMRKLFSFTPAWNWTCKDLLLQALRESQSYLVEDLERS", "UniProt Q96P20": "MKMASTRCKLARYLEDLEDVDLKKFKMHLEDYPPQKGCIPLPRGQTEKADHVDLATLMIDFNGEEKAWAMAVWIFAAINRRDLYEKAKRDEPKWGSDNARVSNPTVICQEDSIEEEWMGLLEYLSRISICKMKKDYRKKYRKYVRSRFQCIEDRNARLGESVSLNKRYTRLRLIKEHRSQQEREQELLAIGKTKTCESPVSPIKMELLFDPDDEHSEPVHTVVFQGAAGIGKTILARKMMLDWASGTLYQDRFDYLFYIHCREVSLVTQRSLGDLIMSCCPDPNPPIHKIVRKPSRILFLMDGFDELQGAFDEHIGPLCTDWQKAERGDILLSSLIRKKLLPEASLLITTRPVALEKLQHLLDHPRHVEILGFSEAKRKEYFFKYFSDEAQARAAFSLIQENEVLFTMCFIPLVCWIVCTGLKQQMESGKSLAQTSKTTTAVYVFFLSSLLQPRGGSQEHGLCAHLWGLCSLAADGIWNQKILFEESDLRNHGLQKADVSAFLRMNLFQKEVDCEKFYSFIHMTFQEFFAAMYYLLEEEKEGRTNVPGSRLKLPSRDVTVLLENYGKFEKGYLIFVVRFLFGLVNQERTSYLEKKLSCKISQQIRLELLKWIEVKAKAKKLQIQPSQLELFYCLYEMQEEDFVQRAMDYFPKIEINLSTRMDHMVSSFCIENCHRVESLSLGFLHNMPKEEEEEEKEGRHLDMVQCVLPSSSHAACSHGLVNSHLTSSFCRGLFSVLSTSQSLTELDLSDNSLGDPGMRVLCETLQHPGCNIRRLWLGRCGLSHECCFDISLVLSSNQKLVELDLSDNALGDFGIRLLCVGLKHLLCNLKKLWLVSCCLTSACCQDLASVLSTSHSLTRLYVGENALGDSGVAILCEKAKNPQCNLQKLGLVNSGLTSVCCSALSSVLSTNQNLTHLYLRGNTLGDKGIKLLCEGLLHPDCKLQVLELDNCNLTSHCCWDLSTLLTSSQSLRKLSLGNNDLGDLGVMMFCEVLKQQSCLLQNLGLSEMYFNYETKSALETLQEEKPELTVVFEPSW", "UniProt Q14790": "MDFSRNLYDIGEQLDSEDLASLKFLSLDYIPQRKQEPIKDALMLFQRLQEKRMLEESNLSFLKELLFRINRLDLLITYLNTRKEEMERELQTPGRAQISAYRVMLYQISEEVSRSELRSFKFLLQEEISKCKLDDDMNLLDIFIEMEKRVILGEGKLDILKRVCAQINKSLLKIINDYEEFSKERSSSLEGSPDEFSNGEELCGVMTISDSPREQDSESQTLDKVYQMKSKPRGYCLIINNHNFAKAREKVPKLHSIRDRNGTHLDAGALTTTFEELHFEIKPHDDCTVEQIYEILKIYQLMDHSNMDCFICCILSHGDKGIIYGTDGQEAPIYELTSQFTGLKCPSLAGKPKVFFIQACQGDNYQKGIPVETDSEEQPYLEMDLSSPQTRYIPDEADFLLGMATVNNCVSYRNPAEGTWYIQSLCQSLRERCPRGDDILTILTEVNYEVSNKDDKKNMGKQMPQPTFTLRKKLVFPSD"}, "source": "paper PMC9718385", "key": {"ASC": {"target": "ASC (UniProt Q9ULZ3)", "experiment": "co-IP; co-immunoprecipitation of NLRP3, ASC and CASP1 or CASP8; bait, cells, tags and conditions not told in the text shown"}, "NLRP3": {"target": "NLRP3 (UniProt Q96P20)", "experiment": "co-IP; co-immunoprecipitation of NLRP3, ASC and CASP1 or CASP8; bait, cells, tags and conditions not told in the text shown"}}, "note": "Results are given in words; binding and its absence hold for the method and conditions named. Binding seen in cells or lysates may run through a third protein. Some results given as binding are weak or reduced against the parent protein; the word gives no strength.", "data": [{"substance": "Caspase-8 (from UniProt Q14790 1-479)", "values": [{"measurement": "binding", "setting": "ASC", "result": "binds"}, {"measurement": "binding", "setting": "NLRP3", "result": "binds"}]}]}
